This is one part of the list.
Tests used:
Experiment in all cases: log2 fold change, soluble protein after heating vs DMSO (PISA); higher = thermal stabilisation; K562 lysate, 10 uM; active = over 0.2 and 3.5 SD of the protein, either way, in both replicates (recomputed)
vemurafenib = compound: CCCS(=O)(=O)Nc1ccc(F)c(C(=O)c2c[nH]c3ncc(-c4ccc(Cl)cc4)cc23)c1F [vemurafenib]
How it was run: (§1)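 K562 pellets were dounce-homogenised in PBS pH 7.4 with 1 mM MgCl2, and the crude extract at 1 mg/mL protein was treated with 10 μM compound for 30 min. Aliquots were heated for 3 min across 48°C-58°C, pooled, and brought to 0.5% NP-40 at 4°C; soluble protein was the supernatant after 21,000xg for 90 min. Soluble protein was quantified by TMTpro 16plex LC-MS/MS with channel sums equalised, and reported as log2 fold change in thermal stability against DMSO controls, with values from duplicates.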

Protein sequences, listed by entry. Tags and fused reporters are not part of them. Lines headed by an entry give the natural chain unless they say otherwise; changes in a name come on top.
UniProt Q6ZS17: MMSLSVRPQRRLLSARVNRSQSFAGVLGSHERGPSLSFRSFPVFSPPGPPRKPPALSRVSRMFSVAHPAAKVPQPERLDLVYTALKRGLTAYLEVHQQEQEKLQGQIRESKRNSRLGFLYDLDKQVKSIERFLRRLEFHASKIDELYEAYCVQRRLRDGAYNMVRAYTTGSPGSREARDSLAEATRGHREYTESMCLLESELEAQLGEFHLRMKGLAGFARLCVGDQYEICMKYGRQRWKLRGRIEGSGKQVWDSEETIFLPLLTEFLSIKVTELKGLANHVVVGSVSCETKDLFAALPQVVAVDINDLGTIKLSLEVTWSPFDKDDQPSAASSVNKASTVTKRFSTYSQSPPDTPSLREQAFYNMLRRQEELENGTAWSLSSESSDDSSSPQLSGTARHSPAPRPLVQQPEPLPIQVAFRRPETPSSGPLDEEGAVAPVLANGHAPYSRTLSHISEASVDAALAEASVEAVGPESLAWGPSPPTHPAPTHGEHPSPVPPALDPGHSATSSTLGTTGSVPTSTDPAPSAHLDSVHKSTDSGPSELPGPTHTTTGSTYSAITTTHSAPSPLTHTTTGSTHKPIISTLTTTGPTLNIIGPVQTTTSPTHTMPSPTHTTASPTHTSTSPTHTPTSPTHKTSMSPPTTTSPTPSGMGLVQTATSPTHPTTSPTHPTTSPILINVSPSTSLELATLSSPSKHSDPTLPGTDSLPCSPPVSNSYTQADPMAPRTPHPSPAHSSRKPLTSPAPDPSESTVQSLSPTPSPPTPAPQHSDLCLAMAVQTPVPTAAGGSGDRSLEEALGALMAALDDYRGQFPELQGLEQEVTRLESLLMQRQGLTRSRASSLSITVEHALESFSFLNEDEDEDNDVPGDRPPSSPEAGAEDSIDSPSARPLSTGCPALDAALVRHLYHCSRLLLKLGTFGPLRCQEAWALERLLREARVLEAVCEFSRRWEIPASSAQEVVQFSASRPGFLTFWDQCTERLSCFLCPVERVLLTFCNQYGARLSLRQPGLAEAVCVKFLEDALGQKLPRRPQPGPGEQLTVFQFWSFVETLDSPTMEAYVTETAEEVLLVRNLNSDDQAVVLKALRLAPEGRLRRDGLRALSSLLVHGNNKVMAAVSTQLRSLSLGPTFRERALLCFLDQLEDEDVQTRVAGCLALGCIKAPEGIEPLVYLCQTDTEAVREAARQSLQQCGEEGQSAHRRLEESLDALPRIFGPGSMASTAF
UniProt Q9Y508: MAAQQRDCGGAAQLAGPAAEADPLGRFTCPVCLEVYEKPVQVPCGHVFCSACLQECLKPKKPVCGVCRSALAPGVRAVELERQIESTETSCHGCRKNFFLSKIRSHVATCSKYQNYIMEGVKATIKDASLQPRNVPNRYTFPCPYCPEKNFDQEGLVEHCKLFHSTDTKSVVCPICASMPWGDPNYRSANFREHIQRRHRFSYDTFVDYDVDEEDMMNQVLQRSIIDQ
UniProt O60942: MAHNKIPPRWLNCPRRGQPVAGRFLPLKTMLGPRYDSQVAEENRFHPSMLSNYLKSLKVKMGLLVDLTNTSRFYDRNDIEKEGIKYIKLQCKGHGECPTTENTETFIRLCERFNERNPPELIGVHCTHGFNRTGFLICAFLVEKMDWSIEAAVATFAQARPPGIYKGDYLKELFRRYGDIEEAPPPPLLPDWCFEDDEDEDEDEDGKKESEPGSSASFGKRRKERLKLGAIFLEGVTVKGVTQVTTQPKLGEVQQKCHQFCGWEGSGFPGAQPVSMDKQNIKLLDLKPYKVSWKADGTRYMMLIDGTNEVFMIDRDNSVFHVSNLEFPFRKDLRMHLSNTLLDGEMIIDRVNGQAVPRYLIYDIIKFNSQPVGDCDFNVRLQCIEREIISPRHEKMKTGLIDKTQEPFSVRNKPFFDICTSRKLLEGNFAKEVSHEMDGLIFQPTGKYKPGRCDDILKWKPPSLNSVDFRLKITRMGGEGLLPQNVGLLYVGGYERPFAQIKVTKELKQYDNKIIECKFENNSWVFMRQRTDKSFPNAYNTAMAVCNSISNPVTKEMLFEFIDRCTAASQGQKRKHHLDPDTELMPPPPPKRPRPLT
UniProt O75150, whole entry, looked up: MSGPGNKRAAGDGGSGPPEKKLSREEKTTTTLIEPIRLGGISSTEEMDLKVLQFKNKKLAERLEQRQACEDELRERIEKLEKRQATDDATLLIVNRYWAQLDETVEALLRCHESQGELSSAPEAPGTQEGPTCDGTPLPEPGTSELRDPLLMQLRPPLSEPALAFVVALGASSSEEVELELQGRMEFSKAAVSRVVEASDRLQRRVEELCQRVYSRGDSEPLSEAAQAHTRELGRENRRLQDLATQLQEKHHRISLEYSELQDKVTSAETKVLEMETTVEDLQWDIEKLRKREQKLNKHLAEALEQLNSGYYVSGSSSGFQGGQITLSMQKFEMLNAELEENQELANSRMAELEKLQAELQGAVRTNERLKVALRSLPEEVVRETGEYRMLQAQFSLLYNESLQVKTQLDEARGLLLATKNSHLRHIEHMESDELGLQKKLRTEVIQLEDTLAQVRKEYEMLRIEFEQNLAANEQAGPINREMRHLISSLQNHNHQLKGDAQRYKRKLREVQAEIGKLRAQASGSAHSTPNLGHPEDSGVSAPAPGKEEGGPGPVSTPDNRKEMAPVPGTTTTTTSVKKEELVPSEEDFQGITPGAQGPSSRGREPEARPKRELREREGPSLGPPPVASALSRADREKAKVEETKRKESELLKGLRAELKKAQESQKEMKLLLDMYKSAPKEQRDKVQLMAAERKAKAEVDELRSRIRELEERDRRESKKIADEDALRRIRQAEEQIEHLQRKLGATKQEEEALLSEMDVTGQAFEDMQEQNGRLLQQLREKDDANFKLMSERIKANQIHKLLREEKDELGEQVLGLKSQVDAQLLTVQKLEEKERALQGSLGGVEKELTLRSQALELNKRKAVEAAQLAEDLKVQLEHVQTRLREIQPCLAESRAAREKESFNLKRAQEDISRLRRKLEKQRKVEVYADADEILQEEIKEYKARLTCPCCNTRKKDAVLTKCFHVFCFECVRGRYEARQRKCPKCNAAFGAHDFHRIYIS
UniProt Q9BV68: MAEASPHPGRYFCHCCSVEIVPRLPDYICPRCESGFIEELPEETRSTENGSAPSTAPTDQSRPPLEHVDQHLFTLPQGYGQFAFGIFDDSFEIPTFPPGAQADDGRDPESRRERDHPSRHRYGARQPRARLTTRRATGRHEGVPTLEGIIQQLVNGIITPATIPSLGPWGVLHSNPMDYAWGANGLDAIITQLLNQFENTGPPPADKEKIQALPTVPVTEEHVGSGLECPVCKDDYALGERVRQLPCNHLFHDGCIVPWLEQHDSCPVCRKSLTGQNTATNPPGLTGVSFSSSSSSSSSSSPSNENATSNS
UniProt O75695: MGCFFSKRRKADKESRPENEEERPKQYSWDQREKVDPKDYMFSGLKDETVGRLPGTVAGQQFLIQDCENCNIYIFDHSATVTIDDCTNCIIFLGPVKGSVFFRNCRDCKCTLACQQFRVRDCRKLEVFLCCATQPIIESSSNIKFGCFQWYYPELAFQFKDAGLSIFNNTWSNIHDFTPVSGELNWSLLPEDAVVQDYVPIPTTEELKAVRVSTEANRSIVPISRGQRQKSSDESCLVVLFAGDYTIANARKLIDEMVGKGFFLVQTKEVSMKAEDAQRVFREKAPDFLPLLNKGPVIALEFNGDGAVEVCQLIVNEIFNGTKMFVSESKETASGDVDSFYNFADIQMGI
UniProt P61586, whole entry, looked up: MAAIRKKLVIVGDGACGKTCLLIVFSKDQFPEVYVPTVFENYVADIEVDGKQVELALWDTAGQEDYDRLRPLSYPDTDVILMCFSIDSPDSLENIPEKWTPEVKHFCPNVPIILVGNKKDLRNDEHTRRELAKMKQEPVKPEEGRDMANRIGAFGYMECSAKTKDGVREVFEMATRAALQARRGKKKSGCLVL
UniProt Q9NPQ8: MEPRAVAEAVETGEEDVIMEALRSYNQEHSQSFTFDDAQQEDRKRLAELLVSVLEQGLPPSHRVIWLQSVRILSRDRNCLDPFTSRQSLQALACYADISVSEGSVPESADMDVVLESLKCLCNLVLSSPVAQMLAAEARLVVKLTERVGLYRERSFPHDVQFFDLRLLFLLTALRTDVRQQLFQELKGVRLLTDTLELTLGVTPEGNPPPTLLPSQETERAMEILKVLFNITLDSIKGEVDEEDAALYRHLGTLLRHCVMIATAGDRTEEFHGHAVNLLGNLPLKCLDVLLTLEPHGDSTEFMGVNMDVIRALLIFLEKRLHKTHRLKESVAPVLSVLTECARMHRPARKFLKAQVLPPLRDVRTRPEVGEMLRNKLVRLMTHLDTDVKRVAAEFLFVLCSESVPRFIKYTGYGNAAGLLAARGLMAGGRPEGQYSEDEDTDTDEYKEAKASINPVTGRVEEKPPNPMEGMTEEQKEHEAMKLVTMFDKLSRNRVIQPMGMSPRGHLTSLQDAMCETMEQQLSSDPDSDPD
UniProt Q8IUF8: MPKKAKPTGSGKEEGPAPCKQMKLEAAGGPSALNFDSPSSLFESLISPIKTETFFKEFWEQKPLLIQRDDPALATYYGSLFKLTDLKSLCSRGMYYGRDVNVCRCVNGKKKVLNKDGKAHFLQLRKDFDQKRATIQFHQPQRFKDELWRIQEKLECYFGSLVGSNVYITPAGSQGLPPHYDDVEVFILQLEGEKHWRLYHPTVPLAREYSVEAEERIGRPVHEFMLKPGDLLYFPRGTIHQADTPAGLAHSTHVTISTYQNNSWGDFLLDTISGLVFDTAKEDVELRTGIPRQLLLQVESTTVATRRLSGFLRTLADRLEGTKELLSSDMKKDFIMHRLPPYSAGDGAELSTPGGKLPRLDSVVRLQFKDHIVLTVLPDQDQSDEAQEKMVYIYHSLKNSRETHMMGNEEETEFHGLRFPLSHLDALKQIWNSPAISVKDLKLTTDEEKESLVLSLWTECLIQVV
UniProt P84095: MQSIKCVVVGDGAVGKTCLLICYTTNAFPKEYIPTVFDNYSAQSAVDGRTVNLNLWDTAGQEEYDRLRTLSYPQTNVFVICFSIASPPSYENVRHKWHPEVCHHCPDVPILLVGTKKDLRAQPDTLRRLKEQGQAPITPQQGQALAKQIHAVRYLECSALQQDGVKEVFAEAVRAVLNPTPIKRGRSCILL
UniProt Q96K19: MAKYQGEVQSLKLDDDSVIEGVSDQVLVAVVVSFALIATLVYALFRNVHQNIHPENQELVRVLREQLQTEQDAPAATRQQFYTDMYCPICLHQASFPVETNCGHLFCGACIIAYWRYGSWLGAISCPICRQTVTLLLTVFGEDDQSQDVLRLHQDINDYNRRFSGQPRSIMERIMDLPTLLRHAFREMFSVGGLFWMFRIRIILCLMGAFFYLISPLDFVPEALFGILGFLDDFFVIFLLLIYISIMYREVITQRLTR
UniProt P49247: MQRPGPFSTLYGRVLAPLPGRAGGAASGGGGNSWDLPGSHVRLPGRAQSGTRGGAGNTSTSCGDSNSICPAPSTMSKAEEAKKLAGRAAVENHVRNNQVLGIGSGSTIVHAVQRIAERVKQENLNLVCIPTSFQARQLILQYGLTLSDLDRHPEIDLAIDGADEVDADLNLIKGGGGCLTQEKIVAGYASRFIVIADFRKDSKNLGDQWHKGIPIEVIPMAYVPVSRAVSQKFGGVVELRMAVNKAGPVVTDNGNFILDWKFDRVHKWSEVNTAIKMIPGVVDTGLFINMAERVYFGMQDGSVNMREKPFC
UniProt P60602: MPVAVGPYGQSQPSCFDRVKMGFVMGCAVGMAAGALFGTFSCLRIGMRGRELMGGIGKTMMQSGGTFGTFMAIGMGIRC
UniProt Q8ND24: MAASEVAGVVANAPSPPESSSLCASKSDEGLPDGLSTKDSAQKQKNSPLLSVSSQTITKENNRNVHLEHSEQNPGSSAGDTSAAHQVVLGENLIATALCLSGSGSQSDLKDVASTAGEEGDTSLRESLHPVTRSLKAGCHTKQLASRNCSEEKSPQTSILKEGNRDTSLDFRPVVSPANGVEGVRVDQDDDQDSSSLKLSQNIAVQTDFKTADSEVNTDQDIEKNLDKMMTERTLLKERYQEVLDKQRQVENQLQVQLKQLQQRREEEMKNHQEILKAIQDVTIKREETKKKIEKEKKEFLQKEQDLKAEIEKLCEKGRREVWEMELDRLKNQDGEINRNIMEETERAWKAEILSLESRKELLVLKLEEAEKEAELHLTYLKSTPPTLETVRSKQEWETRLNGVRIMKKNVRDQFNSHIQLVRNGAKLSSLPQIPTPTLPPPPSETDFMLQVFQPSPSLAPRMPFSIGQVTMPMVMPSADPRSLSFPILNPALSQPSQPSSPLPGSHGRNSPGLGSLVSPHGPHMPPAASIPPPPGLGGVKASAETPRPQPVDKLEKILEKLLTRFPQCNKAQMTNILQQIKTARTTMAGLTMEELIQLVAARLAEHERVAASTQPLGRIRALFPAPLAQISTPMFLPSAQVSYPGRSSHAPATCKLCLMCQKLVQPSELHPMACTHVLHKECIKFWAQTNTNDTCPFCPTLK
UniProt P34096: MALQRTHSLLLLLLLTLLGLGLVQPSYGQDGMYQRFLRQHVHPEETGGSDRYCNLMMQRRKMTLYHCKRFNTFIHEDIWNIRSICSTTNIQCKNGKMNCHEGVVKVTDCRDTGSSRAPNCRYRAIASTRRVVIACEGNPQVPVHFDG

[1] = compound: CCCS(=O)(=O)Nc1ccc(F)c(C(=O)c2c[nH]c3ncc(Cl)cc23)c1F
How it was run: as §1

barasertib = compound: CCN(CCCOc1ccc2c(Nc3cc(CC(=O)Nc4cccc(F)c4)[nH]n3)ncnc2c1)CCOP(=O)(O)O [barasertib]
How it was run: as §1

[2] = compound: CC[C@@H]1C(=O)N(C)c2cnc(Nc3ccc(C(=O)NC4CCN(C)CC4)cc3OC)nc2N1C1CCCC1
How it was run: as §1

volasertib = compound: CC[C@@H]1C(=O)N(C)c2cnc(Nc3ccc(C(=O)N[C@H]4CC[C@H](N5CCN(CC6CC6)CC5)CC4)cc3OC)nc2N1C(C)C [volasertib]
How it was run: as §1

[3] = compound: CCn1c(C(=O)N(C2CC2)C2CC2)cc2c3c(ncn3C)c(Nc3cc(C)n(C)n3)nc21
How it was run: as §1

[4] = compound: CCn1cc(-c2ccnc3[nH]c(-c4cccc(CN(C)C)c4)cc23)c(-c2ccc(NC(=O)N(C)C)cc2)n1
How it was run: as §1

[5] = compound: CN1CCC(CNc2ccc3ncc(-c4cccc(OC(F)(F)F)c4)n3n2)CC1
How it was run: as §1

saracatinib = compound: CN1CCN(CCOc2cc(OC3CCOCC3)c3c(Nc4c(Cl)ccc5c4OCO5)ncnc3c2)CC1 [saracatinib]
How it was run: as §1

sotrastaurin = compound: CN1CCN(c2nc(C3=C(c4c[nH]c5ccccc45)C(=O)NC3=O)c3ccccc3n2)CC1 [sotrastaurin]
How it was run: as §1

Measured: log2 fold change

RNF213, A0A0A0MTC1
inactive: vemurafenib 0.017 | [1] 0.025 | barasertib 0.076 | [2] -0.038 | volasertib -0.077 | [3] 0.027 | [4] -0.05 | [5] -0.053 | saracatinib 0.027 | sotrastaurin 0.043

RPL19 (UniProt P84098)
inactive: vemurafenib -0.052 | [1] -0.001 | barasertib -0.008 | [2] -0.008 | volasertib -0.022 | [3] 0.01 | [4] 0.046 | [5] -0.097 | saracatinib -0.01 | sotrastaurin 0.004

RPL35 (UniProt P42766)
inactive: vemurafenib -0.005 | [1] -0.144 | barasertib -0.029 | [2] 0.041 | volasertib 0.015 | [3] -0.041 | [4] -0.099 | [5] -0.003 | saracatinib -0.047 | sotrastaurin 0.01

RIPOR1 isoform 4 (UniProt Q6ZS17)
inactive: vemurafenib 0.038 | [1] -0.03 | barasertib 0.057 | [2] 0.102 | volasertib -0.089 | [3] 0.03 | [4] 0.005 | [5] -0.151 | saracatinib 0.06 | sotrastaurin 0.132

RPL26 (UniProt P61254)
inactive: vemurafenib -0.101 | [1] 0.008 | barasertib 0.067 | [2] -0.019 | volasertib -0.064 | [3] 0.164 | [4] 0.342 | [5] -0.435 | saracatinib -0.12 | sotrastaurin -0.06

RNF114 (UniProt Q9Y508)
inactive: vemurafenib -0.002 | [1] 0.016 | barasertib -0.026 | [2] 0.051 | volasertib 0.038 | [3] -0.001 | [4] 0.028 | [5] 0 | saracatinib 0.014 | sotrastaurin -0.102

RNGTT (UniProt O60942)
inactive: vemurafenib -0.026 | [1] 0.056 | barasertib -0.022 | [2] -0.038 | volasertib -0.05 | [3] 0.038 | [4] -0.05 | [5] -0.006 | saracatinib 0.033 | sotrastaurin -0.036

RNF40 (UniProt O75150)
inactive: vemurafenib 0.001 | [1] 0.008 | barasertib 0.043 | [2] -0.005 | volasertib -0.047 | [3] 0.002 | [4] 0.011 | [5] -0.033 | saracatinib 0.033 | sotrastaurin -0.012

RPL15 (UniProt P61313)
inactive: vemurafenib -0.048 | [1] -0.003 | barasertib -0.087 | [2] -0.022 | volasertib 0.006 | [3] 0.019 | [4] 0 | [5] 0.012 | saracatinib -0.034 | sotrastaurin 0.016

RNF126 (UniProt Q9BV68)
inactive: vemurafenib 0.094 | [1] 0.044 | barasertib 0.052 | [2] -0.043 | volasertib 0.009 | [3] 0.001 | [4] 0.129 | [5] -0.071 | saracatinib 0.104 | sotrastaurin -0.253

2 neighbouring entries out of the list so far, for reference:
RPL15 (UniProt P61313)
inactive: vemurafenib -0.048 | [1] -0.003 | barasertib -0.087 | [2] -0.022 | volasertib 0.006 | [3] 0.019 | [4] 0 | [5] 0.012 | saracatinib -0.034 | sotrastaurin 0.016

RNF126 (UniProt Q9BV68)
inactive: vemurafenib 0.094 | [1] 0.044 | barasertib 0.052 | [2] -0.043 | volasertib 0.009 | [3] 0.001 | [4] 0.129 | [5] -0.071 | saracatinib 0.104 | sotrastaurin -0.253

More results follow.

RP2 (UniProt O75695)
inactive: vemurafenib -0.108 | [1] -0.04 | barasertib 0.06 | [2] 0.028 | volasertib -0.011 | [3] -0.108 | [4] 0.081 | [5] -0.018 | saracatinib 0.055 | sotrastaurin -0.029

RHOA (UniProt P61586)
inactive: vemurafenib 0.003 | [1] -0.005 | barasertib -0.07 | [2] 0.069 | volasertib 0.009 | [3] 0.042 | [5] -0.06 | saracatinib 0.009 | sotrastaurin 0
active: [4] 0.45

RPL10 (UniProt F8W7C6)
inactive: vemurafenib 0.122 | [1] 0.022 | barasertib -0.046 | [2] -0.079 | volasertib 0.035 | [3] 0.007 | [4] 0.034 | [5] 0.059 | saracatinib 0.019 | sotrastaurin -0.056

RPL32 (UniProt P62910)
inactive: vemurafenib -0.082 | [1] 0.02 | barasertib -0.034 | [2] 0.077 | volasertib -0.022 | [3] 0.042 | [4] 0.046 | [5] -0.013 | saracatinib 0.003 | sotrastaurin -0.024

RIC8A (UniProt Q9NPQ8)
inactive: vemurafenib 0.016 | [1] 0.011 | barasertib 0.044 | [2] -0.083 | volasertib -0.007 | [3] 0.075 | [4] -0.034 | [5] -0.034 | saracatinib 0.035 | sotrastaurin 0.019

RPL27A (UniProt P46776)
inactive: vemurafenib -0.003 | [1] -0.004 | barasertib -0.048 | [2] 0.015 | volasertib -0.02 | [3] -0.005 | [4] -0.068 | [5] 0.033 | saracatinib -0.028 | sotrastaurin -0.001

RPL36A (UniProt P83881)
inactive: vemurafenib 0.017 | [1] -0.051 | barasertib -0.057 | [2] 0.133 | volasertib 0.018 | [3] 0.009 | [4] -0.03 | [5] 0.007 | saracatinib -0.017 | sotrastaurin 0.035

RPL28 (UniProt P46779)
active: [4] 0.278
inactive: vemurafenib 0 | [1] -0.016 | barasertib -0.049 | [2] -0.001 | volasertib 0.006 | [3] -0.017 | [5] -0.066 | saracatinib -0.011 | sotrastaurin -0.038

RIOX2 (UniProt Q8IUF8)
inactive: vemurafenib 0.052 | [1] -0.022 | barasertib -0.008 | [2] 0.007 | volasertib 0.001 | [3] -0.038 | [4] 0.16 | [5] -0.102 | saracatinib -0.002 | sotrastaurin 0.05

RPL22 (UniProt P35268)
inactive: vemurafenib -0.017 | [1] 0 | barasertib 0.035 | [2] -0.042 | volasertib -0.004 | [3] -0.024 | [4] -0.054 | [5] 0.03 | saracatinib 0 | sotrastaurin -0.015

RHOG (UniProt P84095)
inactive: vemurafenib -0.042 | [1] 0.012 | barasertib 0.009 | [2] 0.02 | volasertib -0.023 | [3] -0.011 | [4] -0.01 | [5] 0.019 | saracatinib 0.005 | sotrastaurin -0.004

RNF170 (UniProt Q96K19)
inactive: vemurafenib -0.08 | [1] 0.02 | barasertib 0.189 | volasertib -0.131 | [4] -0.015 | [5] 0.09 | saracatinib -0.201

RPA2 isoform 3 (UniProt P15927)
inactive: vemurafenib 0.054 | [1] 0.022 | barasertib -0.019 | [2] 0.007 | volasertib 0.019 | [3] -0.017 | [4] -0.075 | [5] 0.039 | saracatinib -0.016 | sotrastaurin -0.008

RPL18 (UniProt Q07020)
inactive: vemurafenib -0.035 | [1] -0.006 | barasertib -0.045 | [2] 0.035 | volasertib 0.004 | [3] -0.009 | [4] 0.006 | [5] -0.009 | saracatinib 0.006 | sotrastaurin 0.006

RPIA (UniProt P49247)
inactive: vemurafenib -0.007 | [1] 0.03 | barasertib -0.019 | [2] 0.025 | volasertib 0.001 | [3] -0.001 | [4] -0.216 | [5] 0.113 | saracatinib 0.016 | sotrastaurin -0.009

ROMO1 (UniProt P60602)
inactive: vemurafenib -0.093 | [1] -0.007 | [2] -0.02 | volasertib 0.012 | [3] 0.43 | saracatinib -0.024 | sotrastaurin 0.008

RNF214 (UniProt Q8ND24)
inactive: vemurafenib -0.028 | [1] -0.005 | barasertib 0.008 | [2] 0.067 | volasertib 0.033 | [3] 0.001 | [4] 0.003 | [5] -0.015 | saracatinib 0.027 | sotrastaurin -0.03

RIC1 (UniProt Q4ADV7)
inactive: vemurafenib -0.055 | [1] 0.021 | barasertib -0.013 | [2] 0.029 | volasertib 0.009 | [3] 0.017 | [4] -0.29 | [5] 0.004 | saracatinib -0.012 | sotrastaurin -0.008

RNASE4 (UniProt P34096)
inactive: vemurafenib 0.124 | [1] -0.01 | [2] 0.029 | volasertib -0.005 | [3] -0.044 | saracatinib 0.128 | sotrastaurin 0.103

Source: the supplement of paper PMC10849652
